Experimental data: US20050227220A1, “Compositions and Methods for Evaluating and Designing Nuclear Receptor Ligands that Modulate Co-Regulator Affinity” (priority 2002, published 2005)
Like-named read-outs stand apart in the source and are kept apart here. No constants are given. Whether binding was seen depends on the method and setting. Some entries that bind do so weakly or less than the wild type. Values belong to the molecule of their own block, whether it stands above or below them.

Chains of the proteins cited; added tags and fusions are not shown. Lines headed by an entry give the natural chain unless they say otherwise; changes in a name come on top. A line that says so, or that is headed by a name, gives the form on record, which may keep a tag or linker. Residues count along the entry.
CREB binding protein fragment (CBP, residues 57-454) (P45481, form named): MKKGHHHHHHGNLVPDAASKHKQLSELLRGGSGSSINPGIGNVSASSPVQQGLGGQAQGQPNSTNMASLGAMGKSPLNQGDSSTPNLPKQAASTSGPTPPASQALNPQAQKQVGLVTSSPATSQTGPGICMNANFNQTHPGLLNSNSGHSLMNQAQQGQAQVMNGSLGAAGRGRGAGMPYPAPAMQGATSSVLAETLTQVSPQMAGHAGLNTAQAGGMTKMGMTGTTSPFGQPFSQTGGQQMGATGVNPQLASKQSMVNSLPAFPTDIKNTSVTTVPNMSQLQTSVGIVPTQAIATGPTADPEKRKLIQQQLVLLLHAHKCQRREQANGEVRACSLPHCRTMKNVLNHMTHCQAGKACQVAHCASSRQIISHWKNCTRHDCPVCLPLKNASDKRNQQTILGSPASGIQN
UniProt Q92731, residues 257-530: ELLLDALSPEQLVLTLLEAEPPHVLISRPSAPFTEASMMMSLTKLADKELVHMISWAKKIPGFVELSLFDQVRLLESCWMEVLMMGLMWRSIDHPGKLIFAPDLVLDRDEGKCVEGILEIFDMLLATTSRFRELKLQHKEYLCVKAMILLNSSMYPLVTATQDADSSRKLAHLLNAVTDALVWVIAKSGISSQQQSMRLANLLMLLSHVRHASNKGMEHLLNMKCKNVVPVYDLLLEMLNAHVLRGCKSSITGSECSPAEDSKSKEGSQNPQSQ

Experiments:
[1] = target: T1, Fluoroscein-SMRT ID-C peptide; assay: fluorescence polarization
T1 sequence (peptide, N-terminal fluorescein): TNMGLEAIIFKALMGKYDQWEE

[2] = target: CREB binding protein fragment (CBP, residues 57-454) (UniProt P45481); assay: FRET, biotinylated LBD and CBP (57-454) on labelled streptavidin, with PPAR ligands
[3] = target: T1, Fluoroscein-SMRT ID-C peptide; assay: fluorescence polarization; remark: listed apart in the source
[4] = target: CREB binding protein fragment (CBP, residues 57-454) (UniProt P45481); assay: FRET, fitted factor α (fold change of the receptor-cofactor affinity at saturating ligand), PPAR LBD with CBP (57-454)
[5] = target: CREB binding protein fragment (CBP, residues 57-454) (UniProt P45481); assay: time-resolved FRET (ratio 665 nm/610 nm) of labeled PPARγ LBD (10 nM per paragraph 52; paragraph 53 prints 10 mM) with CBP (57-454) at 25, 50, 100 and […] nM, with the GW1929 concentration varied
[6] = target: T2, Fluoroscein-NCOR ID-C peptide (NCoR amino acids 2251-2275); assay: fluorescence polarization
T2 sequence (peptide, N-terminal fluorescein): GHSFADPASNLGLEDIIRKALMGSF

binding [2]: binds
binding [3]: binds
binding [4]: binds
B1: human PPARα ligand binding domain (amino acids 192-468) (receptor)
chain: MKKGHHHHHHGEHDIEDSETADLKSLAKRIYEAYLKNFNMNKVKARVILSGKASNNPPFVIHDMETLCMAEKTLVAKLVANGIQNKEAEVRIFHCCQCTSVETVTELTEFAKAIPGFANLDLNDQVTLLKYGVYEAIFAMLSSVMNKDGMLVAYGNGFITREFLKSLRKPFCDIMEPKFDFAMKFNALELDDSDISLFVAAIICCGDRPGLLNVGHIEKMQEGIVHVLRLHLQSNHPDDIFLFPKLLQKMADLRQLVTEHAQLVQIIKKTESDAALHPLLQEIYRDMY

binding [2]: binds
binding [4]: binds
binding [5]: binds
binding [1]: binds
B2: human PPARγ ligand binding domain (amino acids 206-477) (receptor)
chain: MKKGHHHHHHGPESADLRALAKHLYDSYIKSFPLTKAKARAILTGKTTDKSPFVIYDMNSLMMGEDKIKFKHITPLQEQSKEVAIRIFQGCQFRSVEAVQEITEYAKSIPGFVNLDLNDQVTLLKYGVHEIIYTMLASLMNKDGVLISEGQGFMTREFLKSLRKPFGDFMEPKFEFAVKFNALELDDSDLAIFIAVIILSGDRPGLLNVKPIEDIQDNLLQALELQLKLNHPESSQLFAKLLQKMTDLRQIVTEHVQLLQVIKKTETDMSLHPLLQEIYKDLY
notes: range 206-477; placed at the N-terminus here; Biotinylated for FRET; also called PPARγ LBD

binding [1]: binds
B3: RXRα ligand binding domain (amino acids 225-462) (receptor, UniProt P19793 225-462, looked up)
chain: SANEDMPVERILEAELAVEPKTETYVEANMGLNPSSPNDPVTNICQAADKQLFTLVEWAKRIPHFSELPLDDQVILLRAGWNELLIASFSHRSIAVKDGILLATGLHVHRNSAHSAGVGAIFDRVLTELVSKMRDMQMDKTELGCLRAIVLFNPDSKGLSNPAEVEALREKVYASLEAYCKHKYPEQPGRFAKLLLRLPALRSIGLKCLEHLFFFKLIGDTPIDTFLMEMLEAPHQMT
notes: range 225-462; Biotinylated for FRET; also called RXRα LBD; not shown: His-tag

The remaining lines, values behind:

Molecule: ERβ ligand binding domain (amino acids 257-530) (from UniProt Q92731 257-530) (receptor)
binding [1]: binds

B4: TRβ ligand binding domain (receptor, UniProt P10828 202-461, looked up)
chain: EELQKSIGHKPEPTDEEWELIKTVTEAHVATNAQGSHWKQKRKFLPEDIGQAPIVNAPEGGKVDLEAFSHFTKIITPAITRVVDFAKKLPMFCELPCEDQIILLKGCCMEIMSLRAAVRYDPESETLTLNGEMAVTRGQLKNGGLGVVSDAIFDLGMSLSSFNLDDTEVALLQAVLLMSSDRPGLACVERIEKYQDSFLLAFEHYINYRKHHVTHFWPKLLMKVTDLRMIGACHASRFLHMKVECPTELFPPLFLEVFED
notes: also called Thyroid Receptor LBD; TRβ LBD
binding [3]: binds
binding [6]: binds

B5: RARα ligand binding domain (amino acids 146-432) (receptor, UniProt P10276 146-432, looked up, not shown: small tags and cut ends)
chain: QKCFEVGMSKESVRNDRNKKKKEVPKPECSESYTLTPEVGELIEKVRKAHQETFPALCQLGKYTTNNSSEQRVSLDIDLWDKFSELSTKCIIKTVEFAKQLPGFTTLTIADQITLLKAACLDILILRICTRYTPEQDTMTFSDGLTLNRTQMHNAGFGPLTDLVFAFANQLLPLEMDDAETGLLSAICLICGDRQDLEQPDRVDMLQEPLLEALKVYVRKRRPSRPHMFPKMLMKITDLRSISAKGAERVITLKMEIPGSMPPLIQEMLENSEGLDTLSGQPGGGGR
binding [3]: binds
